Test results from US10159726B2, “Peptides, combination of peptides and scaffolds for use in immunotherapeutic treatment of various cancers” (Immatics Biotechnologies GmbH, priority 2015, dated 2018).
For some of these results: Expression values are those of the mRNA of the gene that encodes the peptide; a gene is named only where it was looked up.

Columns and labels:
Design in all cases: species or system human
[1] = system: HLA-A*24 molecules of primary tumors; test: Identification and relative LC-MS quantitation of HLA-A*24 tumor-associated peptides presented on tissue samples (XPRESIDENT presentation profiles); details: for Peptide Presentation on cancer entities: Table 9B: selected HLA-A*24 peptides, presentation on additional cancer entities
[2] = system: source genes of selected peptides; test: Expression profiling of source genes by in-house RNAseq, tumor vs normal tissues (target coverage); details: share of tumors with more than 1.5-fold higher expression than highest relevant normal tissue, in-house RNASeq; for Target coverage, over-expression of source gene, AML: AML (N = 7); for Target coverage, over-expression of source gene, BRCA: BRCA (N = 10); for Target coverage, over-expression of source gene, CLL: CLL (N = 10); for Target coverage, over-expression of source gene, CRC: CRC (N = 20); for Target coverage, over-expression of source gene, GB: GB (N = 24); for Target coverage, over-expression of source gene, HCC: HCC (N = 15); for Target coverage, over-expression of source gene, OC: OC (N = 12); for Target coverage, over-expression of source gene, OSCAR: OSCAR (N = 11); for Target coverage, over-expression of source gene, PC: PC (N = 26); for Target coverage, over-expression of source gene, RCC: RCC (N = 10); for Target coverage, over-expression of source gene, SCLC: SCLC (N = 10); for Target coverage, over-expression of source gene, pNSCLC: pNSCLC (N = 11)
[3] = system: source genes of selected peptides; test: Target coverage of source genes in tumor entities based on TCGA Research Network data; details: over-expressed = more than 2-fold above the highest 75% percentile of normal organs; for Target coverage, over-expression category of source gene, BLCA (N = 408): Bladder urothelial carcinoma; for Target coverage, over-expression category of source gene, CESC (N = 307): Cervical squamous cell carcinoma and endocervical adenocarcinoma; for Target coverage, over-expression category of source gene, HNSC (N = 521): Head and neck squamous cell carcinoma; for Target coverage, over-expression category of source gene, LGG (N = 534): Lower grade glioma; for Target coverage, over-expression category of source gene, DLBC (N = 48): Lymphoid neoplasm diffuse large B-cell lymphoma; for Target coverage, over-expression category of source gene, MESO (N = 87): Mesothelioma

## 210: peptide found in BUB1B (gene looked up) (IYAGVGEFSF; listed as Homo sapiens) [compound 210]
[1]; Table 9A: selected HLA-A*24-binding tumor-associated peptides, cancer entities on which the peptide was found presented
  ENTITIES: NSCLC, GC
[2]
  Target coverage, over-expression of source gene, AML: I (<19% over-expression = I)
  Target coverage, over-expression of source gene, BRCA: I (<19% over-expression = I)
  Target coverage, over-expression of source gene, CLL: I (<19% over-expression = I)
  Target coverage, over-expression of source gene, CRC: I (<19% over-expression = I)
  Target coverage, over-expression of source gene, GB: I (<19% over-expression = I)
  Target coverage, over-expression of source gene, HCC: I (<19% over-expression = I)
  Target coverage, over-expression of source gene, OC: I (<19% over-expression = I)
  Target coverage, over-expression of source gene, OSCAR: I (<19% over-expression = I)
  Target coverage, over-expression of source gene, PC: I (<19% over-expression = I)
  Target coverage, over-expression of source gene, RCC: I (<19% over-expression = I)
  Target coverage, over-expression of source gene, SCLC: II (20-49% = II)
  Target coverage, over-expression of source gene, pNSCLC: I (<19% over-expression = I)
[3]
  Target coverage, over-expression category of source gene, BLCA (N = 408): B (>=20% of tumors above the cutoff, but <50%)
  Target coverage, over-expression category of source gene, CESC (N = 307): A (>=50% of tumors above the cutoff)
  Target coverage, over-expression category of source gene, HNSC (N = 521): B (>=20% of tumors above the cutoff, but <50%)
  Target coverage, over-expression category of source gene, LGG (N = 534): C (>=5% of tumors above the cutoff, but <20%)
  Target coverage, over-expression category of source gene, DLBC (N = 48): B (>=20% of tumors above the cutoff, but <50%)
  Target coverage, over-expression category of source gene, MESO (N = 87): C (>=5% of tumors above the cutoff, but <20%)

## 214: peptide found in CCNB2 (gene looked up) (KYLMELTLI; listed as Homo sapiens) [compound 214]
[1]
  Peptide Presentation on cancer entities: NSCLC
[2]
  Target coverage, over-expression of source gene, AML: I (<19% over-expression = I)
  Target coverage, over-expression of source gene, BRCA: I (<19% over-expression = I)
  Target coverage, over-expression of source gene, CLL: I (<19% over-expression = I)
  Target coverage, over-expression of source gene, CRC: I (<19% over-expression = I)
  Target coverage, over-expression of source gene, GB: I (<19% over-expression = I)
  Target coverage, over-expression of source gene, HCC: I (<19% over-expression = I)
  Target coverage, over-expression of source gene, OC: I (<19% over-expression = I)
  Target coverage, over-expression of source gene, OSCAR: I (<19% over-expression = I)
  Target coverage, over-expression of source gene, PC: I (<19% over-expression = I)
  Target coverage, over-expression of source gene, RCC: I (<19% over-expression = I)
  Target coverage, over-expression of source gene, SCLC: II (20-49% = II)
  Target coverage, over-expression of source gene, pNSCLC: I (<19% over-expression = I)
[3]
  Target coverage, over-expression category of source gene, BLCA (N = 408): B (>=20% of tumors above the cutoff, but <50%)
  Target coverage, over-expression category of source gene, CESC (N = 307): A (>=50% of tumors above the cutoff)
  Target coverage, over-expression category of source gene, HNSC (N = 521): B (>=20% of tumors above the cutoff, but <50%)
  Target coverage, over-expression category of source gene, DLBC (N = 48): B (>=20% of tumors above the cutoff, but <50%)
  Target coverage, over-expression category of source gene, MESO (N = 87): C (>=5% of tumors above the cutoff, but <20%)

## 218: peptide found in CYP24A1 (gene looked up) (LYSELNKWSF; listed as Homo sapiens) [compound 218]
[1]
  Peptide Presentation on cancer entities: NSCLC
[2]
  Target coverage, over-expression of source gene, AML: I (<19% over-expression = I)
  Target coverage, over-expression of source gene, BRCA: I (<19% over-expression = I)
  Target coverage, over-expression of source gene, CLL: I (<19% over-expression = I)
  Target coverage, over-expression of source gene, CRC: I (<19% over-expression = I)
  Target coverage, over-expression of source gene, GB: I (<19% over-expression = I)
  Target coverage, over-expression of source gene, HCC: I (<19% over-expression = I)
  Target coverage, over-expression of source gene, OC: I (<19% over-expression = I)
  Target coverage, over-expression of source gene, OSCAR: I (<19% over-expression = I)
  Target coverage, over-expression of source gene, PC: I (<19% over-expression = I)
  Target coverage, over-expression of source gene, RCC: I (<19% over-expression = I)
  Target coverage, over-expression of source gene, SCLC: I (<19% over-expression = I)
  Target coverage, over-expression of source gene, pNSCLC: II (20-49% = II)
[3]
  Target coverage, over-expression category of source gene, BLCA (N = 408): C (>=5% of tumors above the cutoff, but <20%)
[3]; Kidney renal papillary cell carcinoma
  Target coverage, over-expression category of source gene, KIRP (N = 291): C (>=5% of tumors above the cutoff, but <20%)

## 219: peptide found in CYP4Z1 (gene looked up) (SYLKAVFNL; listed as Homo sapiens) [compound 219]
[1]
  Peptide Presentation on cancer entities: NSCLC
[2]
  Target coverage, over-expression of source gene, AML: I (<19% over-expression = I)
  Target coverage, over-expression of source gene, BRCA: III (50-69% = III)
  Target coverage, over-expression of source gene, CLL: I (<19% over-expression = I)
  Target coverage, over-expression of source gene, CRC: I (<19% over-expression = I)
  Target coverage, over-expression of source gene, GB: I (<19% over-expression = I)
  Target coverage, over-expression of source gene, HCC: I (<19% over-expression = I)
  Target coverage, over-expression of source gene, OC: I (<19% over-expression = I)
  Target coverage, over-expression of source gene, OSCAR: I (<19% over-expression = I)
  Target coverage, over-expression of source gene, PC: I (<19% over-expression = I)
  Target coverage, over-expression of source gene, RCC: I (<19% over-expression = I)
  Target coverage, over-expression of source gene, SCLC: I (<19% over-expression = I)
  Target coverage, over-expression of source gene, pNSCLC: I (<19% over-expression = I)
[3]
  Target coverage, over-expression category of source gene, BLCA (N = 408): C (>=5% of tumors above the cutoff, but <20%)
  Target coverage, over-expression category of source gene, CESC (N = 307): C (>=5% of tumors above the cutoff, but <20%)

## 237: peptide found in KIF14 (gene looked up) (KYVGQLAVL; listed as Homo sapiens) [compound 237]
[1]
  Peptide Presentation on cancer entities: HCC
[2]
  Target coverage, over-expression of source gene, AML: I (<19% over-expression = I)
  Target coverage, over-expression of source gene, BRCA: I (<19% over-expression = I)
  Target coverage, over-expression of source gene, CLL: I (<19% over-expression = I)
  Target coverage, over-expression of source gene, CRC: I (<19% over-expression = I)
  Target coverage, over-expression of source gene, GB: I (<19% over-expression = I)
  Target coverage, over-expression of source gene, HCC: I (<19% over-expression = I)
  Target coverage, over-expression of source gene, OC: I (<19% over-expression = I)
  Target coverage, over-expression of source gene, OSCAR: I (<19% over-expression = I)
  Target coverage, over-expression of source gene, PC: I (<19% over-expression = I)
  Target coverage, over-expression of source gene, RCC: I (<19% over-expression = I)
  Target coverage, over-expression of source gene, SCLC: II (20-49% = II)
  Target coverage, over-expression of source gene, pNSCLC: I (<19% over-expression = I)
[3]; Adrenocortical carcinoma
  Target coverage, over-expression category of source gene, ACC (N = 79): C (>=5% of tumors above the cutoff, but <20%)
[3]
  Target coverage, over-expression category of source gene, BLCA (N = 408): A (>=50% of tumors above the cutoff)
  Target coverage, over-expression category of source gene, CESC (N = 307): A (>=50% of tumors above the cutoff)
  Target coverage, over-expression category of source gene, HNSC (N = 521): A (>=50% of tumors above the cutoff)
  Target coverage, over-expression category of source gene, LGG (N = 534): C (>=5% of tumors above the cutoff, but <20%)
  Target coverage, over-expression category of source gene, DLBC (N = 48): A (>=50% of tumors above the cutoff)
  Target coverage, over-expression category of source gene, MESO (N = 87): B (>=20% of tumors above the cutoff, but <50%)
[3]; Cholangiocarcinoma
  Target coverage, over-expression category of source gene, CHOL (N = 36): C (>=5% of tumors above the cutoff, but <20%)

## 244: peptide found in MMP13 (gene looked up) (VHFEDTGKTLLF; listed as Homo sapiens) [compound 244]
[1]
  Peptide Presentation on cancer entities: NSCLC
[2]
  Target coverage, over-expression of source gene, AML: I (<19% over-expression = I)
  Target coverage, over-expression of source gene, BRCA: II (20-49% = II)
  Target coverage, over-expression of source gene, CLL: I (<19% over-expression = I)
  Target coverage, over-expression of source gene, CRC: I (<19% over-expression = I)
  Target coverage, over-expression of source gene, GB: I (<19% over-expression = I)
  Target coverage, over-expression of source gene, HCC: I (<19% over-expression = I)
  Target coverage, over-expression of source gene, OC: I (<19% over-expression = I)
  Target coverage, over-expression of source gene, OSCAR: III (50-69% = III)
  Target coverage, over-expression of source gene, PC: I (<19% over-expression = I)
  Target coverage, over-expression of source gene, RCC: I (<19% over-expression = I)
  Target coverage, over-expression of source gene, SCLC: I (<19% over-expression = I)
  Target coverage, over-expression of source gene, pNSCLC: II (20-49% = II)
[3]
  Target coverage, over-expression category of source gene, BLCA (N = 408): B (>=20% of tumors above the cutoff, but <50%)
  Target coverage, over-expression category of source gene, CESC (N = 307): B (>=20% of tumors above the cutoff, but <50%)
  Target coverage, over-expression category of source gene, HNSC (N = 521): A (>=50% of tumors above the cutoff)
  Target coverage, over-expression category of source gene, DLBC (N = 48): C (>=5% of tumors above the cutoff, but <20%)
  Target coverage, over-expression category of source gene, MESO (N = 87): C (>=5% of tumors above the cutoff, but <20%)
